Assay results as given in patent publication US7488588 (LICENTIA, dated 2009).

Legend:
[1] = target: human GFRα4, GPI-anchored isoform a (GFRα4a) (human); assay: [125I]PSPN binding to GFRA4a-transfected Neuro-2a cells
[2] = target: human GFRα4, GPI-anchored isoform a (GFRα4a) (human); assay: chemical cross-linking of [125I]PSPN on GFRA4-transfected cells
[3] = target: human GFRα4, GPI-anchored isoform a (GFRα4a) (human); assay: chemical cross-linking on GFRA4a-transfected CHO cells (no Ret)
[4] = target: human GFRα4, GPI-anchored isoform a (GFRα4a) (human); assay: chemical cross-linking of [125I]PSPN to GFRA4a-transfected CHO cells (no Ret), SDS-PAGE
[5] = target: human GFRα4, GPI-anchored isoform a (GFRα4a) (human); assay: cross-linking of [125I]PSPN in hGFRα4/Neuro-2a cells, immunoprecipitation with Ret antibodies, SDS-PAGE

Measured: binding

B1: human persephin (PSPN) (ligand, UniProt O60542 61-156, looked up)
chain: ALSGPCQLWSLTLSVAELGLGYASEEKVIFRYCAGSCPRGARTQHGLALARLQGQGRAHGGPCCRPTRYTDVAFLDDRHRWQRLPQLSAAACGCGG
notes: Cross-linking gels show monomer (approx. 14-16 kDa) and dimer (32 kDa) bands; also called unlabeled PSPN
binds: all assays above

Results are given in words; binding and its absence hold for the method and conditions named. Binding can be weak; no strength is given.
